Binding data for 1 molecule are collected here from paper PMC4350363.

These are yes or no findings as the source states them, for the method shown. Binding seen in cells or lysates may run through a third protein. Some results given as binding are weak or reduced against the parent protein; the word gives no strength.

The target in the assay is T1, LATS2 (human (endogenous in MDA-MB-231)) (UniProt Q9NRM7).
T1 sequence: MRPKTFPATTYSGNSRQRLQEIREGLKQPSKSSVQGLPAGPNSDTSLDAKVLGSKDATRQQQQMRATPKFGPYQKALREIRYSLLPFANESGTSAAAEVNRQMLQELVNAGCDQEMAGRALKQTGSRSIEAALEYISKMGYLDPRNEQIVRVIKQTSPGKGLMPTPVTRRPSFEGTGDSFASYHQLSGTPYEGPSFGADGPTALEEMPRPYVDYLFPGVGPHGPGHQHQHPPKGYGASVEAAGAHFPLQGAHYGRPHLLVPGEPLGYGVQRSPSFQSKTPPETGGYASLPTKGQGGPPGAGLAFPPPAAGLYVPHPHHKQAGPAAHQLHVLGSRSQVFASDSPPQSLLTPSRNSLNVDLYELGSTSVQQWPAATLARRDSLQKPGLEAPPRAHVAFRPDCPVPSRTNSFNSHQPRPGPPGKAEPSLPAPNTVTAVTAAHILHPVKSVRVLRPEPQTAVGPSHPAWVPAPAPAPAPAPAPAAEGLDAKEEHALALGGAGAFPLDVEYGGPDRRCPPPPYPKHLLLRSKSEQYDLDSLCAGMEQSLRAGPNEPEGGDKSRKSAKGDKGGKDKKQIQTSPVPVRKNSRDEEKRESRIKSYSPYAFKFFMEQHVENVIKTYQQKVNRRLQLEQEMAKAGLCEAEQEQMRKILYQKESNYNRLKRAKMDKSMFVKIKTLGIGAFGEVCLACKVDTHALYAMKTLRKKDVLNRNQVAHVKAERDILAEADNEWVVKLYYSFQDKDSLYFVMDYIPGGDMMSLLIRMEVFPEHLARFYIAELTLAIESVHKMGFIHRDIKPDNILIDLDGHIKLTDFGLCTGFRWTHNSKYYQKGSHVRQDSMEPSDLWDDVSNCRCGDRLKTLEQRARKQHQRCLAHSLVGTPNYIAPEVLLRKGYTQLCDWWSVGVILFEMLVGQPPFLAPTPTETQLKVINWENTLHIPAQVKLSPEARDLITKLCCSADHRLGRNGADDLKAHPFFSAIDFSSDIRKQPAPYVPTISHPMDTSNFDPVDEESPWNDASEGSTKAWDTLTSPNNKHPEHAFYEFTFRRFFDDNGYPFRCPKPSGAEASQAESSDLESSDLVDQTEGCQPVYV
The assay is described as follows: co-IP; endogenous proteins; 0.75 mg whole cell lysate in RIPA buffer from MDA-MB-231 cells exposed to 1% O2 for 48 h with 10 μM MG132 for the last 6 h; IP with anti-LATS2 or anti-SIAH1 antibody (IgG as control) and protein G-Sepharose overnight at 4°C, beads washed 5 times in lysis buffer; immunoblot for LATS2 or SIAH1. On the technique in general: Immunoblotting shows a protein as a band on a membrane.

B1: SIAH1 (enzyme, UniProt Q8IUQ4-1 1-282)
chain: MSRQTATALPTGTSKCPPSQRVPALTGTTASNNDLASLFECPVCFDYVLPPILQCQSGHLVCSNCRPKLTCCPTCRGPLGSIRNLAMEKVANSVLFPCKYASSGCEITLPHTEKADHEELCEFRPYSCPCPGASCKWQGSLDAVMPHLMHQHKSITTLQGEDIVFLATDINLPGAVDWVMMQSCFGFHFMLVLEKQEKYDGHQQFFAIVQLIGTRKQAENFAYRLELNGHRRRLTWEATPRSIHEGIATAIMNSDCLVFDTSIAQLFAENGNLGINVTISMC
Turning to B1, the binding entry is given as “binds”.
